From publication PMC6447540
These are yes or no findings as the source states them, for the method shown. In cells and extracts the contact can be indirect. Some binding calls cover weakened binding; strength is not graded here. Each block holds one molecule with its values, some of them ahead of it.

Amino acid sequences for entries named in this document (tags omitted).
UniProt Q9GZV5: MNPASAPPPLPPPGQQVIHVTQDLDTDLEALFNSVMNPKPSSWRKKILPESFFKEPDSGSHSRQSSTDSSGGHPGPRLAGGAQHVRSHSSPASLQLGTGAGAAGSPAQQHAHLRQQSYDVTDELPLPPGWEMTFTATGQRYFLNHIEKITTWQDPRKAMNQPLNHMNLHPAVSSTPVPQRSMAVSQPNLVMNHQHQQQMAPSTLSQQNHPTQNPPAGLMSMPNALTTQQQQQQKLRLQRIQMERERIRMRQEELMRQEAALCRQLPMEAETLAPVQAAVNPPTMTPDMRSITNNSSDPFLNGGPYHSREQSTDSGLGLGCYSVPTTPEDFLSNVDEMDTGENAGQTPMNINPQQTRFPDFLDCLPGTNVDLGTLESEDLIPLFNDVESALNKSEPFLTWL
UniProt P31749: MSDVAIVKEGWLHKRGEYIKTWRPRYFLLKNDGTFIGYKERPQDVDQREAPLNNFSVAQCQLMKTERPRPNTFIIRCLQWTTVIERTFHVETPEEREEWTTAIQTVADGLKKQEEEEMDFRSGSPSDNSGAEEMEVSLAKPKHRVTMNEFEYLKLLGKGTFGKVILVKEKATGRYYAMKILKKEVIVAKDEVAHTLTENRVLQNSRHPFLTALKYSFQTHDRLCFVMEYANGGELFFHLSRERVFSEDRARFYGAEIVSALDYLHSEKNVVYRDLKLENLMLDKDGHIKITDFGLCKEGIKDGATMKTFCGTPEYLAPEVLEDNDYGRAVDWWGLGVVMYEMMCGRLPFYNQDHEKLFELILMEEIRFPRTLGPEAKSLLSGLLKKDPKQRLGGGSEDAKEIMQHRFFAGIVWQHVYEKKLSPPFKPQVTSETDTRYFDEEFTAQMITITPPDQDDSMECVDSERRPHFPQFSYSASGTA

Legend:
Flag-TAZ = Flag-TAZ (UniProt Q9GZV5); assay: co-IP; Flag-IP (anti-Flag agarose beads, 3-4 h at 4 °C) from 1000 μg lysate of HEK293 cells co-transfected with the indicated constructs; washed five times with NETN buffer; immunoblot (Fig. 1a, 1e)
Biotin-Akt1-WT peptide = biological target: T1, Biotin-Akt1-WT peptide; assay: pull-down; biotin-labeled Akt1 peptides (2 μg) incubated with 1 mg whole cell lysate in 500 μl for 4 h at 4 °C, Streptavidin agarose beads 1 h, washed four times with NETN buffer; western blot (Fig. 1f); only the target purified
T1 sequence (peptide, biotin on the N-terminus; free C-terminus): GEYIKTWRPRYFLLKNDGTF

binding (Flag-TAZ): no binding
Molecule: HA-Akt1 (from UniProt P31749 1-480)

binding (Biotin-Akt1-WT peptide): binds
B1: SAV1 (construct not stated) (protein, UniProt Q9H4B6 1-383)
chain: MLSRKKTKNEVSKPAEVQGKYVKKETSPLLRNLMPSFIRHGPTIPRRTDICLPDSSPNAFSTSGDVVSRNQSFLRTPIQRTPHEIMRRESNRLSAPSYLARSLADVPREYGSSQSFVTEVSFAVENGDSGSRYYYSDNFFDGQRKRPLGDRAHEDYRYYEYNHDLFQRMPQNQGRHASGIGRVAATSLGNLTNHGSEDLPLPPGWSVDWTMRGRKYYIDHNTNTTHWSHPLEREGLPPGWERVESSEFGTYYVDHTNKKAQYRHPCAPSVPRYDQPPPVTYQPQQTERNQSLLVPANPYHTAEIPDWLQVYARAPVKYDHILKWELFQLADLDTYQGMLKLLFMKELEQIVKMYEAYRQALLTELENRKQRQQWYAQQHGKNF
